The other results are listed elsewhere or left out.

The chains behind the UniProt entries cited, without tags or fusion partners. Where a name states a change or a piece, a line headed by the entry shows the natural chain unless it says otherwise.
UniProt P68036, whole entry, looked up: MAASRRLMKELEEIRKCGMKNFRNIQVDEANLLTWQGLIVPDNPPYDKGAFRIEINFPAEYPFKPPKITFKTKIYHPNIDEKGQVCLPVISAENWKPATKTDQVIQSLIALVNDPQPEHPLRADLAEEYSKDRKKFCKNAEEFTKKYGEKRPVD
UniProt Q05086: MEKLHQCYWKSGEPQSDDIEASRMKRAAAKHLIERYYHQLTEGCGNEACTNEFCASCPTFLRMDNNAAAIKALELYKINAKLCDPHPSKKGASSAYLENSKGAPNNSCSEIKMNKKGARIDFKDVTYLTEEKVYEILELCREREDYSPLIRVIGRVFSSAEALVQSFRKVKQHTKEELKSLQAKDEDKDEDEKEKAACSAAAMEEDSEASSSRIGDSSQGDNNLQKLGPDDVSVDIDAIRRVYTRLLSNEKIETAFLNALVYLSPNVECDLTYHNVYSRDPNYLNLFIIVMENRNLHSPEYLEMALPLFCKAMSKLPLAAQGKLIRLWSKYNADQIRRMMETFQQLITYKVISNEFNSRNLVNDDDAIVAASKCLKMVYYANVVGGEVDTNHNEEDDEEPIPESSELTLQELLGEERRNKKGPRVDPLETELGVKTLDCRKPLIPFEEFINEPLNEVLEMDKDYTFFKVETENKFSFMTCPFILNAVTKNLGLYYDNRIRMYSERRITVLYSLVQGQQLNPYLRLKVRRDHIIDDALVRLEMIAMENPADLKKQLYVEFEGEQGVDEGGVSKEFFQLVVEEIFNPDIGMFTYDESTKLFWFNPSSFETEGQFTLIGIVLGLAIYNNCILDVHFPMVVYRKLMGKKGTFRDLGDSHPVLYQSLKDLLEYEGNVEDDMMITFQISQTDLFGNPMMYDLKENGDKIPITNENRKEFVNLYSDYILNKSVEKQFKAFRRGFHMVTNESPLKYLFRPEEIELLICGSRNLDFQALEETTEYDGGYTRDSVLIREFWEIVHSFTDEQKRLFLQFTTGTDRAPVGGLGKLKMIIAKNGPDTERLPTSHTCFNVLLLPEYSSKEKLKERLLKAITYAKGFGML
UniProt Q8N5M4: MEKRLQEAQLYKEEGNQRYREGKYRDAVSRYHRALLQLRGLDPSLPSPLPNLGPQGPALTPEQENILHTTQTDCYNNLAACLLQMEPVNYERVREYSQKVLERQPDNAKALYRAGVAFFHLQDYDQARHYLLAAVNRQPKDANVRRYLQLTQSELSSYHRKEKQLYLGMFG
UniProt P43897: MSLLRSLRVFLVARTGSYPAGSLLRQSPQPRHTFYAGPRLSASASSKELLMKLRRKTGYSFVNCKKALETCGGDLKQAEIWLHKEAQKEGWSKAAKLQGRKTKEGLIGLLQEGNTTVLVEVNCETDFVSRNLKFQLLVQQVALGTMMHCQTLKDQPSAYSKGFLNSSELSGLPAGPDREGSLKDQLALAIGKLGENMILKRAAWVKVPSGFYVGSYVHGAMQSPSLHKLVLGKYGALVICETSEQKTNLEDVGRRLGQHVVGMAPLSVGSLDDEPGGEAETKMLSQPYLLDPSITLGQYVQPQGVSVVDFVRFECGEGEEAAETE
UniProt Q9NNW7, whole entry, looked up: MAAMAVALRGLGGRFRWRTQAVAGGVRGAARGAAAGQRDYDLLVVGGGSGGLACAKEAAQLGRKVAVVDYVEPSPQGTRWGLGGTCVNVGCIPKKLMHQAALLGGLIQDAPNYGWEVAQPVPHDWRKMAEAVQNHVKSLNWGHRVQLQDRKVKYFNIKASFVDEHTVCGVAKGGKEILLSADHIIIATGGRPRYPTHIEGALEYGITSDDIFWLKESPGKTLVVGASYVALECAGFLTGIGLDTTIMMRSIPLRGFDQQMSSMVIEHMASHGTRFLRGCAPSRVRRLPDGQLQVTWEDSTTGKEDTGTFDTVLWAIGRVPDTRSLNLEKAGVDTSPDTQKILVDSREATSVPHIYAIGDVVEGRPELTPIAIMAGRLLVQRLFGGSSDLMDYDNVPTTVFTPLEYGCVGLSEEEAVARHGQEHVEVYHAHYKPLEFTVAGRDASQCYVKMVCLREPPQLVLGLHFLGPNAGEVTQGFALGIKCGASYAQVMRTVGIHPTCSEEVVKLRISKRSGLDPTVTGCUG
UniProt Q5T6F2: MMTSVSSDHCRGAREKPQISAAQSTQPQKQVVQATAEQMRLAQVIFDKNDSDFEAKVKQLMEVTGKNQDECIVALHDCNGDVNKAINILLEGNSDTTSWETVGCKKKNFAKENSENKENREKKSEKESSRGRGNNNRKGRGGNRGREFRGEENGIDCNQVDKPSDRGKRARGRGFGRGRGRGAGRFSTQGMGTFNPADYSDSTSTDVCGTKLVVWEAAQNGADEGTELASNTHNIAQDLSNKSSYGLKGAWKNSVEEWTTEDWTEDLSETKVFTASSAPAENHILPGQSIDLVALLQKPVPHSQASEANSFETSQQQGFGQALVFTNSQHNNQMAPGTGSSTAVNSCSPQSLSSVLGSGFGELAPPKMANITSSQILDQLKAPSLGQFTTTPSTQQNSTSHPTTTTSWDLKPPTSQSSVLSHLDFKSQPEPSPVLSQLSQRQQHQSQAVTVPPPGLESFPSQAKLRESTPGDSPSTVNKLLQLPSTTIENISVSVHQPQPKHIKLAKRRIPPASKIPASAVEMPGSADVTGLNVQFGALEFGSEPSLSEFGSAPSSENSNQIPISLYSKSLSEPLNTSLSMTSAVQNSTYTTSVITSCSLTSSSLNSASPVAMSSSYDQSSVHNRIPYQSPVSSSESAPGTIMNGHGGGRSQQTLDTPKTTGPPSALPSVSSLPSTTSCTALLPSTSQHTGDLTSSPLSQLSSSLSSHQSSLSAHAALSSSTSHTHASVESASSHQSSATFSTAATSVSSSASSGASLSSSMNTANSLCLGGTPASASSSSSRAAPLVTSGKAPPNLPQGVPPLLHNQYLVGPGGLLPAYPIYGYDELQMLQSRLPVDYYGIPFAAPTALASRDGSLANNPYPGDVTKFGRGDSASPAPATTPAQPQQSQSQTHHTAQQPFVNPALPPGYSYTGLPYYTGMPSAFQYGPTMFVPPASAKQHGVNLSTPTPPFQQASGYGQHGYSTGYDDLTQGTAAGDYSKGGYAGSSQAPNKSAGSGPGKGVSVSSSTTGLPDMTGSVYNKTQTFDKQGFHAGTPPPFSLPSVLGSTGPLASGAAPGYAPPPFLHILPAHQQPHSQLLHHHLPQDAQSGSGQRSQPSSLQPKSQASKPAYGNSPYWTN
UniProt O43156, whole entry, looked up: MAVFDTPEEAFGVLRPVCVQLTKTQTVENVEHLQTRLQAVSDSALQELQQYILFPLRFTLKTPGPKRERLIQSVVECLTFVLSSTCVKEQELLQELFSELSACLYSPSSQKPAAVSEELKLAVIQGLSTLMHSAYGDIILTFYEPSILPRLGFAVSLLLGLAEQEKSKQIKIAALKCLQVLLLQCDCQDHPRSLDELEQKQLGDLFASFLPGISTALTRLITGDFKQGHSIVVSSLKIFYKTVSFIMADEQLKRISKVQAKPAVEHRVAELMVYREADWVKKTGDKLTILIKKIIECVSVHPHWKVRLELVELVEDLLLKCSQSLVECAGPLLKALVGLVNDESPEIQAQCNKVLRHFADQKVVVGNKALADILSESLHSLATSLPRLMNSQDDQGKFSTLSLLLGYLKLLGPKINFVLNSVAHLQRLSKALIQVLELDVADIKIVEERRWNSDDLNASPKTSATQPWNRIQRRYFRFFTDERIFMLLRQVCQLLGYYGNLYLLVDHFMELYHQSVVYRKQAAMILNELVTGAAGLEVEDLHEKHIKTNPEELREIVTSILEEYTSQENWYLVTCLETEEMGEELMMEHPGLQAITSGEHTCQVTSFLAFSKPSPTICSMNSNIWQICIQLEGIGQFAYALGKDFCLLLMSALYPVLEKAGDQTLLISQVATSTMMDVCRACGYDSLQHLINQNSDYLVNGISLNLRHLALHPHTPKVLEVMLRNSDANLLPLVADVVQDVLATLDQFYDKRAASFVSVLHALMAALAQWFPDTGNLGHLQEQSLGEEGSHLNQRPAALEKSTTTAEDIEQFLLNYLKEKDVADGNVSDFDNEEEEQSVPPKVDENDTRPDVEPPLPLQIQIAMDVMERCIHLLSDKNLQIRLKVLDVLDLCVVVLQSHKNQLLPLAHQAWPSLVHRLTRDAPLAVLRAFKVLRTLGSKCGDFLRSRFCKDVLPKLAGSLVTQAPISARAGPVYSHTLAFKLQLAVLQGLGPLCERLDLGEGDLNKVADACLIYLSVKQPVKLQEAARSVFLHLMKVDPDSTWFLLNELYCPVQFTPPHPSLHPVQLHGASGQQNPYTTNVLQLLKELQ
UniProt Q16222: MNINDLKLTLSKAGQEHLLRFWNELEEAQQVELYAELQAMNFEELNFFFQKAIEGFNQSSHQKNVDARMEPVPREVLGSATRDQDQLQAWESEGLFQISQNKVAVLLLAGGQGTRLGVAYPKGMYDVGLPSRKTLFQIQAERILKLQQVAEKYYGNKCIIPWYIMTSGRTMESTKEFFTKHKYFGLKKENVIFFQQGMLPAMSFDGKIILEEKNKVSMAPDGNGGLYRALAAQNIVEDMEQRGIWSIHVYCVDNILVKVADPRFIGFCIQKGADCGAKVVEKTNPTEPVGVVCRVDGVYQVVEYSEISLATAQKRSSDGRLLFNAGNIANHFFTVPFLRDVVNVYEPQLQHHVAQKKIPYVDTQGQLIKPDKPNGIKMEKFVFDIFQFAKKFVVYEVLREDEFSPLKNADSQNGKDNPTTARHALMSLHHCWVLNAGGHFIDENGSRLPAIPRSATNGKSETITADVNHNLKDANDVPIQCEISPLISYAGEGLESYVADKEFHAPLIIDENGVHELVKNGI
UniProt P62253: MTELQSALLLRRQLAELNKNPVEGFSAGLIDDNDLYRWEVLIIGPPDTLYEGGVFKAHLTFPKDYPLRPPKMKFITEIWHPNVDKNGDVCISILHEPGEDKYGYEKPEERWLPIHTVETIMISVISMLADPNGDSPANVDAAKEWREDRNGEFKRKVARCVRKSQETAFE
UniProt O15042: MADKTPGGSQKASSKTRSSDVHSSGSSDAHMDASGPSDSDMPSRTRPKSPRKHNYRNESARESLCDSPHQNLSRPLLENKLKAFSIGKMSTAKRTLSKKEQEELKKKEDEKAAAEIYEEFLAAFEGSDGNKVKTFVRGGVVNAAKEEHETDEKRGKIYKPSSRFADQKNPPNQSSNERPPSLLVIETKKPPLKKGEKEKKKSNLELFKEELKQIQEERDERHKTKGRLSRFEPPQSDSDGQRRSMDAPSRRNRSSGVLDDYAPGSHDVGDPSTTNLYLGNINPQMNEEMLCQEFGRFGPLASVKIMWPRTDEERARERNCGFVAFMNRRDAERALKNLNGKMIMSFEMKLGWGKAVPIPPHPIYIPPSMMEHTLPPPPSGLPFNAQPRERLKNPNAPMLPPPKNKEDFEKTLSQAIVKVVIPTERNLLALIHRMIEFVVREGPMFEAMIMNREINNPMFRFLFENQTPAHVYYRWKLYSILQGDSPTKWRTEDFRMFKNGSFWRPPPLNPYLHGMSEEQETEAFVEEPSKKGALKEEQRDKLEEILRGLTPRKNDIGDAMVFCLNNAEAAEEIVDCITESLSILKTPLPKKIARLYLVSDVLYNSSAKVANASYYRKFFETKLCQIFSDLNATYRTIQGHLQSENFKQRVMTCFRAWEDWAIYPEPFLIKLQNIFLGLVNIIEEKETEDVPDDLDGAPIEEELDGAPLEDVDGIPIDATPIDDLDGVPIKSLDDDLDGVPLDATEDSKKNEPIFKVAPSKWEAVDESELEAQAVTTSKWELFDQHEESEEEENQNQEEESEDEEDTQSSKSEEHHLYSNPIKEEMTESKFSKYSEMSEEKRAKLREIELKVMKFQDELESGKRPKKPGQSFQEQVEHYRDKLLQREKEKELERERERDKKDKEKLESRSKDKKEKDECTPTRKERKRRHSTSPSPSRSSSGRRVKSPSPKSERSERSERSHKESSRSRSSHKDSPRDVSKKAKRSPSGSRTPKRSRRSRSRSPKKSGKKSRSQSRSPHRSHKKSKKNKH
UniProt Q13509, whole entry, looked up: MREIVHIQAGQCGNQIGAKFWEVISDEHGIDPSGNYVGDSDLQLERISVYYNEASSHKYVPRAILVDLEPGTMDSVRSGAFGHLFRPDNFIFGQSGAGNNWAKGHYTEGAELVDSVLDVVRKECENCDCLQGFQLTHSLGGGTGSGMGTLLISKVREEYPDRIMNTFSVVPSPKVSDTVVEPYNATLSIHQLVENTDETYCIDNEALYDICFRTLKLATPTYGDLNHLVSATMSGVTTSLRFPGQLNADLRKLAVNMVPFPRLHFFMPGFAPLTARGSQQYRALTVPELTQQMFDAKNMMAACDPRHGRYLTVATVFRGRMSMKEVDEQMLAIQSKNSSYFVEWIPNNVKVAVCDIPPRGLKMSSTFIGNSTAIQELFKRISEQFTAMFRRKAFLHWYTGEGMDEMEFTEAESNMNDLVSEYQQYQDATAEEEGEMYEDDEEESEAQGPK
UniProt Q99757: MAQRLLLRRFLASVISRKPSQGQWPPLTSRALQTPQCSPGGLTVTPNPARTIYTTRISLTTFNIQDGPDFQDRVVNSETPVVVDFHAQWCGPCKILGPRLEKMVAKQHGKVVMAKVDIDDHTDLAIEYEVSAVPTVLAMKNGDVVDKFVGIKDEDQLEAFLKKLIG

Compound in the first assay: O=C(CCCCCCNC(=O)c1cnc(N(c2ccccc2)c2ccccc2Cl)nc1)NO [citarinostat]
The experiment in a line: log2 fold change, soluble protein after heating vs DMSO (PISA); higher = thermal stabilisation; K562 cells, 10 uM, 30 min; active = over 0.2 and 3.5 SD of the protein, either way, in both replicates (recomputed). The essentials:
(§1)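 Soluble protein was defined as the supernatant after 21,000xg for 90 min. It came from K562 cells at 2×10^6 cells/mL given 10 μM compound for 30 min, heated in aliquots for 3 min across 48°C-58°C, pooled, and extracted in PBS with 0.5% NP-40 at 4°C, and was quantified by TMTpro 16plex LC-MS/MS with equalised channel sums. Thermal stability against control samples, from duplicates, is reported as log2 fold change.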
As for UBAP1 isoform 4 (UniProt Q9NZ09), the log2 fold change was inactive: 0.193.

As to U2AF2 (UniProt P26368), the log2 fold change was inactive: -0.014.

Turning to TSPAN14 (UniProt Q8NG11), the log2 fold change is inactive: 0.038.

Regarding UBA3 (UniProt Q8TBC4), the log2 fold change was inactive: 0.084.

Regarding TXNL4A (UniProt P83876), the log2 fold change is inactive: 0.02.

Consider TXNDC9 (UniProt O14530), for which the log2 fold change was inactive: 0.03.

For the target UBE2L3 isoform 3 (UniProt P68036), the log2 fold change was inactive: 0.012.

For UBAC1 (UniProt Q9BSL1), the log2 fold change is inactive: 0.055.

Consider TTF2 (UniProt Q9UNY4), for which the log2 fold change was inactive: -0.011.

Take UBE3A (UniProt Q05086): the log2 fold change was inactive: 0.034.

As to TTC9C (UniProt Q8N5M4), the log2 fold change is inactive: 0.012.

Regarding TTC4 (UniProt O95801), the log2 fold change was inactive: 0.064.

With UBA1 (UniProt P22314), the log2 fold change was inactive: 0.125.

Take TSFM (UniProt P43897): the log2 fold change was inactive: 0.181.

Take TSR2 (UniProt Q969E8): the log2 fold change is inactive: 0.105.

Take TUBE1 (UniProt Q9UJT0): the log2 fold change is inactive: -0.008.

On to UBE2S (UniProt Q16763), for which the log2 fold change was inactive: 0.072.

For TXNRD2 (UniProt Q9NNW7), the log2 fold change was inactive: 0.125.

For UBE2E3 (UniProt Q969T4), the log2 fold change was inactive: 0.063.

Regarding UBAP2 (UniProt Q5T6F2), the log2 fold change is inactive: 0.029.

In the case of UBE2M (UniProt P61081), the log2 fold change is inactive: 0.07.

TTC17 (UniProt Q96AE7): the log2 fold change was inactive: 0.028.

TTI1 (UniProt O43156): the log2 fold change was inactive: 0.028.

As for UAP1 (UniProt Q16222), the log2 fold change is inactive: 0.001.

In the case of TSPO (UniProt P30536), the log2 fold change is inactive: 0.041.

Take TTN isoform 12 (UniProt Q8WZ42): the log2 fold change is inactive: -0.108.

Consider TTL (UniProt Q8NG68), for which the log2 fold change was inactive: -0.042.

As for TXNDC15 (UniProt Q96J42), the log2 fold change is inactive: 0.014.

Take UBE2T (UniProt Q9NPD8): the log2 fold change was inactive: 0.057.

For TWF2 (UniProt Q6IBS0), the log2 fold change is inactive: 0.005.

On to TUFM (UniProt P49411), for which the log2 fold change is inactive: 0.084.

Take UBA52 (UniProt P62987): the log2 fold change is inactive: -0.112.

For the target UBE2G1 (UniProt P62253), the log2 fold change was inactive: 0.051.

Consider UBE2F isoform 2 (UniProt Q969M7), for which the log2 fold change is inactive: 0.04.

On to U2SURP (UniProt O15042), for which the log2 fold change was inactive: 0.117.

Turning to TXNIP (UniProt Q9H3M7), the log2 fold change was inactive: 0.071.

UBE2K (UniProt P61086): the log2 fold change was inactive: 0.076.

As for U2AF1 isoform 2 (UniProt Q01081), the log2 fold change was inactive: 0.039.

For the target TUBB3 (UniProt Q13509), the log2 fold change is inactive: 0.063.

For TXN2 (UniProt Q99757), the log2 fold change was inactive: 0.054.

Compound in the next assay: O=C(O)c1ccc2c(c1)nc(Nc1cccc(Cl)c1)c1ccncc12 [silmitasertib]
The assay is described as above. The essentials: as §1
Turning to UBAP1 isoform 4 (UniProt Q9NZ09), the log2 fold change is inactive: 0.064.

Consider U2AF2 (UniProt P26368), for which the log2 fold change was inactive: -0.049.

On to TSPAN14 (UniProt Q8NG11), for which the log2 fold change is inactive: -0.011.

For the target UBA3 (UniProt Q8TBC4), the log2 fold change was inactive: -0.039.

On to TXNL4A (UniProt P83876), for which the log2 fold change is inactive: -0.036.

As for TXNDC9 (UniProt O14530), the log2 fold change is inactive: -0.033.

Regarding UBE2L3 isoform 3 (UniProt P68036), the log2 fold change is inactive: -0.043.

For the target UBAC1 (UniProt Q9BSL1), the log2 fold change was inactive: 0.004.

As for TTF2 (UniProt Q9UNY4), the log2 fold change was inactive: 0.117.

For UBE3A (UniProt Q05086), the log2 fold change was inactive: -0.009.

Turning to TTC9C (UniProt Q8N5M4), the log2 fold change was inactive: -0.016.

For TTC4 (UniProt O95801), the log2 fold change was inactive: 0.074.

Take UBA1 (UniProt P22314): the log2 fold change was inactive: 0.018.

As to TSFM (UniProt P43897), the log2 fold change is inactive: 0.11.

With TSR2 (UniProt Q969E8), the log2 fold change is inactive: -0.005.

In the case of TUBE1 (UniProt Q9UJT0), the log2 fold change is inactive: 0.009.

As to UBE2S (UniProt Q16763), the log2 fold change is inactive: 0.069.

Regarding TXNRD2 (UniProt Q9NNW7), the log2 fold change is inactive: 0.033.

With UBE2E3 (UniProt Q969T4), the log2 fold change is inactive: -0.016.

On to UBAP2 (UniProt Q5T6F2), for which the log2 fold change was inactive: 0.008.

On to UBE2M (UniProt P61081), for which the log2 fold change was inactive: -0.003.

Regarding TTC17 (UniProt Q96AE7), the log2 fold change was inactive: 0.

As for TTI1 (UniProt O43156), the log2 fold change was inactive: 0.062.

Take UAP1 (UniProt Q16222): the log2 fold change was inactive: -0.079.

As to TSPO (UniProt P30536), the log2 fold change was inactive: 0.025.

For TTN isoform 12 (UniProt Q8WZ42), the log2 fold change is inactive: -0.042.

For the target TTL (UniProt Q8NG68), the log2 fold change was inactive: 0.064.

Turning to TXNDC15 (UniProt Q96J42), the log2 fold change is inactive: 0.072.

As to UBE2T (UniProt Q9NPD8), the log2 fold change is inactive: 0.015.

As to TWF2 (UniProt Q6IBS0), the log2 fold change is inactive: 0.028.

For TUFM (UniProt P49411), the log2 fold change is inactive: -0.105.

Consider UBA52 (UniProt P62987), for which the log2 fold change is inactive: 0.158.

With UBE2G1 (UniProt P62253), the log2 fold change was inactive: -0.047.

Consider UBE2F isoform 2 (UniProt Q969M7), for which the log2 fold change is inactive: 0.003.

With U2SURP (UniProt O15042), the log2 fold change is inactive: -0.002.

For the target TXNIP (UniProt Q9H3M7), the log2 fold change was inactive: 0.115.

For the target UBE2K (UniProt P61086), the log2 fold change was inactive: 0.01.

For the target U2AF1 isoform 2 (UniProt Q01081), the log2 fold change was inactive: -0.034.

For TUBB3 (UniProt Q13509), the log2 fold change was inactive: -0.06.

Turning to TXN2 (UniProt Q99757), the log2 fold change was inactive: -0.072.

The values are drawn from the supplement of paper PMC10849652.
